Data as given in the supplement of paper PMC12542422.
Counter-ions that a name gives are not always drawn. ± gives the standard deviation of the averaged measurements. The list shows a part of the results. These are raw signals, not scaled to a control.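 HeLa cells imaged for ribosome-assembly readouts (ENP1 staining with or without export block, or inducible tagged ribosomal protein reporters); machine learning classified each cell's signal location against solvent (DMSO) controls. Hits exceeded the DMSO false-positive mean by five standard deviations, then were visually confirmed; three biological replicates.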

Legend:
[1] = test system: HeLa K (ENP1 immunofluorescence, +LMB); test: fraction of cells with nucleolar or nucleolar/nucleoplasmic ENP1 signal (MainHitrate); higher = more cells with nucleolar/nuclear readout signal (for ENP1 -LMB: less RNAPI inhibition; for +LMB ENP1 and RP reporters: stronger nuclear/nucleolar retention, i.e. ribosome biogenesis defect); conditions: concentration: 1 µM; treatment time: 6 h; ENP1 +LMB; leptomycin B: 20 nM, last 1.5 h
[2] = test system: HeLa K (ENP1 immunofluorescence, no LMB); test: as above; conditions: concentration: 1 µM; treatment time: 6 h; ENP1 -LMB; leptomycin B: none
HeLa RPS2-YFP reporter = test: fraction of reporter-positive cells with nuclear (nucleolar or nucleolar/nucleoplasmic) RPS2-YFP (MainHitrate); higher = more cells with nucleolar/nuclear readout signal (for ENP1 -LMB: less RNAPI inhibition; for +LMB ENP1 and RP reporters: stronger nuclear/nucleolar retention, i.e. ribosome biogenesis defect); conditions: concentration: 1 µM; treatment time: 6 h
HeLa RPL29-GFP reporter = test: fraction of reporter-positive cells with nuclear (nucleolar or nucleolar/nucleoplasmic) RPL29-GFP (MainHitrate); higher = more cells with nucleolar/nuclear readout signal (for ENP1 -LMB: less RNAPI inhibition; for +LMB ENP1 and RP reporters: stronger nuclear/nucleolar retention, i.e. ribosome biogenesis defect); conditions: concentration: 1 µM; treatment time: 6 h

With Cc1nc2n(c(=O)c1CCN1CCC(c3noc4cc(F)ccc34)CC1)CCCC2 [Risperidone (Risperdal)] the fraction [1] was 0.106 ± 0.13, the fraction [2] was 0.9986 ± 0.0025 and the “fraction of reporter-positive cells with nuclear” value (from here on “fraction … with nuclear”) (HeLa RPS2-YFP reporter) was 0.104 ± 0.054. The “fraction … with nuclear” value (HeLa RPL29-GFP reporter) was 0.221 ± 0.056.

In the case of COc1ccc2cc(CCC(C)=O)ccc2c1 [Nabumetone], the fraction [1] is reported as 0.0509 ± 0.054, the fraction [2] is reported as 0.9948 ± 0.009 and the “fraction … with nuclear” value (HeLa RPS2-YFP reporter) is reported as 0.118 ± 0.098. The “fraction … with nuclear” value (HeLa RPL29-GFP reporter) was 0.227 ± 0.044.

In the case of Nc1nc(N)nc(-c2cc(Cl)ccc2Cl)n1 [Irsogladine], the fraction [1] is reported as 0.183 ± 0.29, the fraction [2] is reported as 0.989 ± 0.018 and the “fraction … with nuclear” value (HeLa RPS2-YFP reporter) is reported as 0.114 ± 0.079. The “fraction … with nuclear” value (HeLa RPL29-GFP reporter) was 0.224 ± 0.07.

For C#CCN[C@@H]1CCc2ccccc21 [Rasagiline mesylate], the fraction [1] was 0.108 ± 0.15, the fraction [2] was 0.992 ± 0.013 and the “fraction … with nuclear” value (HeLa RPS2-YFP reporter) was 0.106 ± 0.083. The “fraction … with nuclear” value (HeLa RPL29-GFP reporter) was 0.239 ± 0.072.

Cn1nnc2c(C(N)=O)ncn2c1=O [Methazolastone] was tested, and the fraction [1] was 0.0917 ± 0.11, the fraction [2] was 0.9972 ± 0.0049 and the “fraction … with nuclear” value (HeLa RPS2-YFP reporter) was 0.11 ± 0.082. The “fraction … with nuclear” value (HeLa RPL29-GFP reporter) was 0.198 ± 0.067.

For NC(=O)N/N=C/c1ccc([N+](=O)[O-])o1 [Nitrofurazone (Nitrofural)], the fraction [1] was 0.112 ± 0.12, the fraction [2] was 0.9984 ± 0.0027 and the “fraction … with nuclear” value (HeLa RPS2-YFP reporter) was 0.117 ± 0.077. For the same compound, the “fraction … with nuclear” value (HeLa RPL29-GFP reporter) was 0.21 ± 0.071.

In the case of CC(C(=O)O)c1ccc(-c2ccccc2)c(F)c1 (configuration not stated) [Flurbiprofen (Ansaid)], the fraction [1] is reported as 0.0823 ± 0.051, the fraction [2] is reported as 0.998 ± 0.0034 and the “fraction … with nuclear” value (HeLa RPS2-YFP reporter) is reported as 0.104 ± 0.093. For the same compound, the “fraction … with nuclear” value (HeLa RPL29-GFP reporter) was 0.188 ± 0.035.

CC(=O)[C@H]1CC[C@H]2[C@@H]3C[C@H](C)C4=CC(=O)CC[C@]4(C)[C@H]3[C@@H](O)C[C@]12C [Medrysone] was tested, and the fraction [1] was 0.067 ± 0.067, the fraction [2] was 0.9959 ± 0.0072 and the “fraction … with nuclear” value (HeLa RPS2-YFP reporter) was 0.0965 ± 0.045. The “fraction … with nuclear” value (HeLa RPL29-GFP reporter) was 0.309 ± 0.22.

O=C(O)c1cc(/N=N/c2ccc(S(=O)(=O)Nc3ccccn3)cc2)ccc1O [Sulfasalazine (Azulfidine)] was tested, and the fraction [1] was 0.0841 ± 0.074, the fraction [2] was 0.9983 ± 0.003 and the “fraction … with nuclear” value (HeLa RPS2-YFP reporter) was 0.076 ± 0.023. The “fraction … with nuclear” value (HeLa RPL29-GFP reporter) was 0.238 ± 0.081.

In the case of Oc1c(Cl)cc(Cl)c2cccnc12 [Chloroxine], the fraction [1] is reported as 0.13 ± 0.18, the fraction [2] is reported as 0.9943 ± 0.0099 and the “fraction … with nuclear” value (HeLa RPS2-YFP reporter) is reported as 0.12 ± 0.08. For the same compound, the “fraction … with nuclear” value (HeLa RPL29-GFP reporter) was 0.229 ± 0.097.

With Cc1cn(-c2cc(NC(=O)c3ccc(C)c(Nc4nccc(-c5cccnc5)n4)c3)cc(C(F)(F)F)c2)cn1 [Nilotinib (AMN-107)] the fraction [1] was 0.092 ± 0.075, the fraction [2] was 0.9974 ± 0.0045 and the “fraction … with nuclear” value (HeLa RPS2-YFP reporter) was 0.0897 ± 0.076. For the same compound, the “fraction … with nuclear” value (HeLa RPL29-GFP reporter) was 0.186 ± 0.045.

In the case of Cc1cccc(C)c1OCC(=O)N[C@@H](Cc1ccccc1)[C@@H](O)C[C@H](Cc1ccccc1)NC(=O)[C@H](C(C)C)N1CCCNC1=O [Lopinavir (ABT-378)], the fraction [1] is reported as 0.109 ± 0.13, the fraction [2] is reported as 0.9991 ± 0.0015 and the “fraction … with nuclear” value (HeLa RPS2-YFP reporter) is reported as 0.105 ± 0.069. The “fraction … with nuclear” value (HeLa RPL29-GFP reporter) was 0.206 ± 0.063.

CN(C)CCC(c1ccccc1)c1ccccn1 (configuration not stated) [Pheniramine Maleate] was tested, and the fraction [1] was 0.093 ± 0.13, the fraction [2] was 0.988 ± 0.021 and the “fraction … with nuclear” value (HeLa RPS2-YFP reporter) was 0.112 ± 0.1. The “fraction … with nuclear” value (HeLa RPL29-GFP reporter) was 0.216 ± 0.062.

For N=C(N)NCCN1CCCCCCC1 [Guanethidine Sulfate], the fraction [1] was 0.086 ± 0.077, the fraction [2] was 0.9975 ± 0.0043 and the “fraction … with nuclear” value (HeLa RPS2-YFP reporter) was 0.18 ± 0.2. For the same compound, the “fraction … with nuclear” value (HeLa RPL29-GFP reporter) was 0.272 ± 0.22.

For CCCC(=O)OCOC(=O)C1=C(C)NC(C)=C(C(=O)OC)C1c1cccc(Cl)c1Cl (configuration not stated) [Cleviprex (Clevidipine)], the fraction [1] was 0.0942 ± 0.11, the fraction [2] was 0.9943 ± 0.0099 and the “fraction … with nuclear” value (HeLa RPS2-YFP reporter) was 0.115 ± 0.1. The “fraction … with nuclear” value (HeLa RPL29-GFP reporter) was 0.221 ± 0.079.

NC(=O)N1c2ccccc2C=Cc2ccccc21 [Carbamazepine (Carbatrol)] was tested, and the fraction [1] was 0.0629 ± 0.043, the fraction [2] was 0.998 ± 0.0034 and the “fraction … with nuclear” value (HeLa RPS2-YFP reporter) was 0.106 ± 0.092. For the same compound, the “fraction … with nuclear” value (HeLa RPL29-GFP reporter) was 0.225 ± 0.049.

In the case of O=S(=O)(O)Oc1ccc(C(c2ccc(OS(=O)(=O)O)cc2)c2ccccn2)cc1 [Sodium Picosulfate], the fraction [1] is reported as 0.0454 ± 0.05, the fraction [2] is reported as 0.987 ± 0.023 and the “fraction … with nuclear” value (HeLa RPS2-YFP reporter) is reported as 0.1 ± 0.077. For the same compound, the “fraction … with nuclear” value (HeLa RPL29-GFP reporter) was 0.226 ± 0.069.

COc1ccc(CNc2nc(N3CCC[C@H]3CO)ncc2C(=O)NCc2ncccn2)cc1Cl [Avanafil] was tested, and the fraction [1] was 0.0345 ± 0.039, the fraction [2] was 0.993 ± 0.012 and the “fraction … with nuclear” value (HeLa RPS2-YFP reporter) was 0.153 ± 0.13. The “fraction … with nuclear” value (HeLa RPL29-GFP reporter) was 0.207 ± 0.058.

With CCOC(=O)CC(=O)N1CCSC1COc1ccccc1OC (configuration not stated) [Moguisteine] the fraction [1] was 0.128 ± 0.18, the fraction [2] was 0.989 ± 0.019 and the “fraction … with nuclear” value (HeLa RPS2-YFP reporter) was 0.066 ± 0.038. The “fraction … with nuclear” value (HeLa RPL29-GFP reporter) was 0.257 ± 0.063.

In the case of NS(=O)(=O)c1cc2c(cc1C(F)(F)F)NC(Cc1ccccc1)NS2(=O)=O (configuration not stated) [Bendroflumethiazide], the fraction [1] is reported as 0.103 ± 0.12, the fraction [2] is reported as 0.998 ± 0.0035 and the “fraction … with nuclear” value (HeLa RPS2-YFP reporter) is reported as 0.18 ± 0.17. For the same compound, the “fraction … with nuclear” value (HeLa RPL29-GFP reporter) was 0.283 ± 0.23.

COc1ccccc1OCC(O)CN1CCN(CC(=O)Nc2c(C)cccc2C)CC1 (configuration not stated) [Ranolazine dihydrochloride] was tested, and the fraction [1] was 0.0903 ± 0.084, the fraction [2] was 0.9979 ± 0.0036 and the “fraction … with nuclear” value (HeLa RPS2-YFP reporter) was 0.118 ± 0.039. The “fraction … with nuclear” value (HeLa RPL29-GFP reporter) was 0.212 ± 0.058.

For CC(C)[C@H]1CC[C@H](C(=O)N[C@H](Cc2ccccc2)C(=O)O)CC1 [Nateglinide (Starlix)], the fraction [1] was 0.335 ± 0.55, the fraction [2] was 0.992 ± 0.015 and the “fraction … with nuclear” value (HeLa RPS2-YFP reporter) was 0.0891 ± 0.069. For the same compound, the “fraction … with nuclear” value (HeLa RPL29-GFP reporter) was 0.224 ± 0.074.

For CCOc1ccc2nc(S(N)(=O)=O)sc2c1 [Ethoxzolamide], the fraction [1] was 0.0833 ± 0.096, the fraction [2] was 0.993 ± 0.013 and the “fraction … with nuclear” value (HeLa RPS2-YFP reporter) was 0.158 ± 0.12. For the same compound, the “fraction … with nuclear” value (HeLa RPL29-GFP reporter) was 0.303 ± 0.16.

In the case of OC(CCN1CCCC1)(c1ccccc1)C1CCCCC1 (configuration not stated) [Procyclidine HCl], the fraction [1] is reported as 0.0984 ± 0.12, the fraction [2] is reported as 0.9976 ± 0.0041 and the “fraction … with nuclear” value (HeLa RPS2-YFP reporter) is reported as 0.15 ± 0.17. The “fraction … with nuclear” value (HeLa RPL29-GFP reporter) was 0.268 ± 0.24.

With Cc1ccc(C(=O)C(C)CN2CCCCC2)cc1 (configuration not stated) [Tolperisone HCl] the fraction [1] was 0.107 ± 0.14, the fraction [2] was 0.991 ± 0.015 and the “fraction … with nuclear” value (HeLa RPS2-YFP reporter) was 0.143 ± 0.12. For the same compound, the “fraction … with nuclear” value (HeLa RPL29-GFP reporter) was 0.228 ± 0.051.

With C[C@]12CC[C@H](O)CC1=CC[C@@H]1[C@@H]2CC[C@]2(C)C(c3cccnc3)=CC[C@@H]12 [Abiraterone (CB-7598)] the fraction [1] was 0.105 ± 0.075, the fraction [2] was 0.9964 ± 0.0062 and the “fraction … with nuclear” value (HeLa RPS2-YFP reporter) was 0.108 ± 0.053. The “fraction … with nuclear” value (HeLa RPL29-GFP reporter) was 0.198 ± 0.039.

With C=C[C@]1(C)C[C@@H](OC(=O)CS[C@@H]2C[C@H]3CC[C@@H](C2)N3C)[C@]2(C)[C@H](C)CC[C@]3(CCC(=O)[C@H]32)[C@@H](C)[C@@H]1O [Retapamulin] the fraction [1] was 0.0588 ± 0.07, the fraction [2] was 0.984 ± 0.028 and the “fraction … with nuclear” value (HeLa RPS2-YFP reporter) was 0.109 ± 0.094. The “fraction … with nuclear” value (HeLa RPL29-GFP reporter) was 0.209 ± 0.074.

For COc1cc2nc(N(C)CCCNC(=O)C3CCCO3)nc(N)c2cc1OC (configuration not stated) [Alfuzosin hydrochloride (Uroxatral)], the fraction [1] was 0.095 ± 0.11, the fraction [2] was 0.9982 ± 0.0031 and the “fraction … with nuclear” value (HeLa RPS2-YFP reporter) was 0.101 ± 0.053. The “fraction … with nuclear” value (HeLa RPL29-GFP reporter) was 0.2 ± 0.069.
